The supplement of paper PMC6143611
Where a name gives a salt, the structure may show the parent alone. ± gives the uncertainty stated by the source. The list shows a part of the results. Part of the spread comes from offsets between plates or batches.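 Larvae carried a heat-shock-induced fluorescent stripe in rod outer segments, set at 6 dpf; the shedding distance runs from this stripe to the outer segment tip, measured in confocal stacks, about three fish per compound. The controls got 0.2% DMSO vehicle, and the paper flagged compounds with at least a 20% change against the same-week control and p < 0.001 (Dunnett test on mixed-effects models).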

Experiments:
[1] = system: Danio rerio larva rod photoreceptor outer segment; assay: rod outer segment growth distance Dg, difference from same-week DMSO control mean; higher = more outer segment growth; details: 20 µM; treatment time: 4 days (6-10 dpf)
[2] = system: Danio rerio larva rod photoreceptor outer segment; assay: rod outer segment shedding distance Ds, difference from same-week DMSO control mean; higher = less outer segment shedding; details: 20 µM; treatment time: 4 days (6-10 dpf)

| Structure (SMILES) | rod outer segment growth distance Dg [1] [um] | rod outer segment shedding distance Ds [2] [um] |
| --- | --- | --- |
| O=C(O)c1cc(=O)[nH]c(=O)[nH]1 [Orotic acid (6-Carboxyuracil)] | -3.17 ± 1 | -2.99 ± 1.3 |
| C[C@@H](O)[C@H]1C(=O)N2C(C(=O)O)=C(S[C@@H]3CN[C@H](CNS(N)(=O)=O)C3)[C@H](C)[C@H]12 [Doripenem Hydrate] | 0.23 ± 0.24 | -0.07 ± 0.23 |
| O=C(O)CCCc1c[nH]c2ccccc12 [3-Indolebutyric acid (IBA)] | 0.91 ± 0.22 | -0.28 ± 0.33 |
| Oc1ccc(-c2nc(-c3ccc(F)cc3)c(-c3ccncc3)[nH]2)cc1 | 0.63 ± 0.3 | -0.48 ± 0.42 |
| Cc1ccc(S(=O)(=O)NC(=O)NN2CC3CCCC3C2)cc1 (stereo not drawn) [Gliclazide] | -0.78 ± 0.25 | -0.7 ± 0.15 |
| COc1ccc([C@@H]2CC(=O)c3c(O)cc(O[C@@H]4O[C@H](CO)[C@@H](O)[C@H](O)[C@H]4O[C@@H]4O[C@@H](C)[C@H](O)[C@@H](O)[C@H]4O)cc3O2)cc1O [Neohesperidin] | -2.95 ± 1.1 | -3.55 ± 1.2 |
| N#CSc1cc(SC#N)c(N)nc1N | 0.3 ± 0.26 | -1.48 ± 0.4 |
| COc1cccc2c1C(=O)c1c(O)c3c(c(O)c1C2=O)C[C@@](O)(C(=O)CO)C[C@@H]3O[C@H]1C[C@H](N)[C@H](O[C@@H]2CCCCO2)[C@H](C)O1 [Pirarubicin] | -1.5 ± 0.23 | -0.03 ± 0.22 |
| COc1ccccc1S(=O)(=O)Nc1ccc2c(c1)CN(C)C(=O)N2 | 0.43 ± 0.21 | -0.44 ± 0.22 |
| COc1cc(F)c(C(C)C)cc1-c1ccc(C(F)(F)F)cc1CN1C(=O)O[C@H](c2cc(C(F)(F)F)cc(C(F)(F)F)c2)[C@@H]1C [Anacetrapib (MK-0859)] | -0.38 ± 0.14 | -0.34 ± 0.13 |
| CCCc1cc(C(N)=S)ccn1 [Protionamide] | 1.7 ± 0.41 | -1.68 ± 0.58 |
| CN(C)CCc1c[nH]c2ccc(CS(=O)(=O)N3CCCC3)cc12 [Almotriptan Malate] | 0.17 ± 0.21 | -0.17 ± 0.26 |
| CN(C)CCN1C(=O)c2cccc3cc(N)cc(c23)C1=O [Amonafide] | -0.23 ± 0.27 | -0.12 ± 0.26 |
| [I-].[K+] [Potassium Iodide] | 0.87 ± 0.26 | 1.52 ± 0.29 |
| O=C(c1ccc(/C=C/c2n[nH]c3ccccc23)cc1)N1CCNCC1 | -1.42 ± 0.28 | 0.69 ± 0.24 |
| COc1cc(Nc2ncc(F)c(Nc3ccc4c(n3)N(COP(=O)(O)O)C(=O)C(C)(C)O4)n2)cc(OC)c1OC [Fostamatinib (R788)] | -1.89 ± 0.19 | -0.19 ± 0.1 |
| O=C(Nc1c(Cl)cncc1Cl)c1ccc(OC(F)F)c(OCC2CC2)c1 [Roflumilast] | 2.45 ± 0.3 | -1.03 ± 0.36 |
| COc1ccc(CCC(=O)Nc2nc3ccc(Cl)cc3s2)cc1OC | -1.15 ± 0.2 | -0.77 ± 0.26 |
| CN[C@@H]1[C@H](O[C@H]2[C@H](O[C@H]3[C@H](O)[C@@H](O)[C@H](N=C(N)N)[C@@H](O)[C@@H]3N=C(N)N)O[C@@H](C)[C@]2(O)C=O)O[C@@H](CO)[C@H](O)[C@H]1O [Streptomycin sulfate] | -0.03 ± 0.27 | 0.07 ± 0.14 |
| Cn1c(=O)n(-c2ccc(C(C)(C)C#N)cc2)c2c3cc(-c4cnc5ccccc5c4)ccc3ncc21 [BEZ235 (NVP-BEZ235, Dactolisib)] | -0.28 ± 0.3 | -1.34 ± 0.34 |
| NS(=O)(=O)c1cc2c(cc1Cl)N=CNS2(=O)=O [Chlorothiazide] | -0.36 ± 0.22 | -0.35 ± 0.17 |
| CC1(C)O[C@@H]2[C@@H](CO[C@@]3(COS(N)(=O)=O)OC(C)(C)O[C@@H]23)O1 [Topiramate] | -0.88 ± 0.17 | -0.02 ± 0.2 |
| N=C(N)NC(=N)NCCc1ccccc1 [Phenformin HCl] | -0.91 ± 0.21 | 0.35 ± 0.19 |
| CC(C)c1nc(CN(C)C(=O)N[C@H](C(=O)N[C@@H](Cc2ccccc2)C[C@H](O)[C@H](Cc2ccccc2)NC(=O)OCc2cncs2)C(C)C)cs1 [Ritonavir] | 0.49 ± 0.17 | -2.07 ± 0.25 |
| CCc1c2c(nc3ccc(O)cc13)-c1cc3c(c(=O)n1C2)COC(=O)[C@]3(O)CC | 0.87 ± 0.16 | -0.04 ± 0.14 |
| Cc1ccc(NC(=O)c2ccc(CN3CCN(C)CC3)cc2)cc1Nc1nccc(-c2cccnc2)n1 [Imatinib (STI571)] | 1.19 ± 0.31 | -0.39 ± 0.26 |
| CCNC(=O)CCC/C=C\C[C@@H]1[C@@H](/C=C/[C@@H](O)CCc2ccccc2)[C@H](O)C[C@@H]1O [Bimatoprost] | 0.82 ± 0.37 | -0.85 ± 0.38 |
| CC1=C(/C=C/C(C)=C/C=C/C(C)=C/C=C/C=C(C)/C=C/C=C(C)/C=C/C2=C(C)CCCC2(C)C)C(C)(C)CCC1 [Beta Carotene] | -1.15 ± 0.23 | -0.38 ± 0.18 |
| C[C@H]1[C@H](NC(=O)/C(=N\OC(C)(C)C(=O)O)c2csc(N)n2)C(=O)N1S(=O)(=O)O [Aztreonam] | -0.87 ± 0.23 | 0.51 ± 0.21 |

Some of the entries above in another layout:
Structure (SMILES) | rod outer segment growth distance Dg [1] [um] | rod outer segment shedding distance Ds [2] [um]
Cc1ccc(S(=O)(=O)NC(=O)NN2CC3CCCC3C2)cc1 (stereo not drawn) [Gliclazide] | -0.78 ± 0.25 | -0.7 ± 0.15
COc1cc(Nc2ncc(F)c(Nc3ccc4c(n3)N(COP(=O)(O)O)C(=O)C(C)(C)O4)n2)cc(OC)c1OC [Fostamatinib (R788)] | -1.89 ± 0.19 | -0.19 ± 0.1
